We go through 25 molecules from PubChem BioAssay AID330 (DTP/NCI, 2004).

The structures appear in SMILES notation. The list does not hold the whole screen: it is rich in T/C values a quarter to a half above the control, in often repeated tests (any T/C) and in doses without a T/C. Further doses and runs are listed elsewhere. T/C: endpoint of the treated group in % of that of the vehicle group. Some entries give survivors of the animals treated and no T/C: the source holds a T/C of zero for them, seemingly a mark for toxic or unscored doses. Some doses without a T/C left all or most animals alive at the check, yet need not have been tolerated: survival well below the control is almost never listed, so the zero probably covers shortened survival too. Counts of survivors are from the toxicity check (mostly the fifth day) where no day follows; animals may have died later. Schedule codes are those of the source, read here as Q, the interval in days (D) or hours (H), X, the number of doses. Counts like (3×) give the number of equal values in this list. Some entries hold several experiments; the values are given in rising order. Where survival is the endpoint, the PubChem record calls one and a half times the control and up active, and a quarter to a half above the control has no call in these data; cut-offs in other NCI protocols can differ. Some T/C values are followed by the survivors on the day toxicity was checked, most often the fifth; where none is given, no animal had died by that day.

This experiment has as its system P388 leukemia ip, CD2F1 mice, survival T/C. In words: NCI In Vivo Anticancer Drug Screen. Data for tumor model P388 Leukemia (intraperitoneal) in CD2F1 (CDF1) mice. The settings on record: T/C endpoint: median survival time, higher T/C = longer survival.
The mark [1] stands for this setting: dose: 200.0 mg/kg/injection, schedule: Q01DX005 (ip), vehicle: saline.
Setting [2] is: dose: 100.0 mg/kg/injection, schedule: Q01DX005 (ip), vehicle: Klucel (hydroxypropylcellulose) (HPC).
The mark [3] stands for this setting: dose: 200.0 mg/kg/injection, schedule: Q01DX005 (ip), vehicle: Klucel (hydroxypropylcellulose) (HPC).
Where [4] appears, read: dose: 50.0 mg/kg/injection, schedule: Q01DX009 (ip), vehicle: saline.
Setting [5] is: dose: 100.0 mg/kg/injection, schedule: Q01DX009 (ip), vehicle: saline.
[6] abbreviates: dose: 200.0 mg/kg/injection, schedule: Q01DX009 (ip), vehicle: saline.
Where [7] appears, read: dose: 12.5 mg/kg/injection, schedule: Q01DX009 (ip), vehicle: distilled water + Tween-80.
The mark [8] stands for this setting: dose: 25.0 mg/kg/injection, schedule: Q01DX009 (ip), vehicle: distilled water + Tween-80.
Where [9] appears, read: dose: 50.0 mg/kg/injection, schedule: Q01DX009 (ip), vehicle: distilled water + Tween-80.
The mark [10] stands for this setting: dose: 240.0 mg/kg/injection, schedule: Q01DX005 (ip), vehicle: saline.
[11] abbreviates: dose: 50.0 mg/kg/injection, schedule: Q01DX005 (ip), vehicle: Klucel (hydroxypropylcellulose) (HPC).

With `COc1ccc(CC2C(=O)NC(C)C(=O)N(C)C3C(=O)N(C)C(Cc4ccc(OC)c(c4)Oc4ccc(cc4)C3O)C(=O)NC(C)C(=O)NC(C)C(=O)N2C)cc1` (stereo not drawn), the T/C was 125 % of control (dose: 0.5 mg/kg/injection, schedule: Q01DX009 (ip), vehicle: distilled water + alcohol) and 134 % of control (dose: 1.0 mg/kg/injection, schedule: Q01DX009 (ip), vehicle: distilled water + alcohol). Besides, the survivor count (dose: 2.0 mg/kg/injection, schedule: Q01DX009 (ip), vehicle: distilled water + alcohol) is 2 of 6 and the survivor count (dose: 4.0 mg/kg/injection, schedule: Q01DX009 (ip), vehicle: distilled water + alcohol) was 1 of 6.
Consider `COc1cc(NCCN)c2ncsc2c1`, for which the survivor count under setting [1] is given as 0 of 6.
As to `Cc1ccc(C(=O)Nc2c(C)cccc2C)cc1`, where the note is “dose: 240.0 mg/kg/injection, schedule: Q01DX005 (ip), vehicle: saline with Tween-80”, the survivor count was 6 of 6.
Turning to `CCCCOc1ccc2nc(C)cc(N/N=C/c3ccc(OC)c4ccccc34)c2c1`, the survivor count by setting is: under setting [2], 5 of 6; under setting [3], 0 of 6.
As to `O=C1CSC(c2cccs2)N1CCN1C(=O)CSC1c1cccs1` (stereo not drawn), the survivor count (dose: 400.0 mg/kg/injection, schedule: Q04DX002 (ip), vehicle: saline with Tween-80) was 6 of 6.
On to `N#Cc1ccc[n+](Cc2c(Cl)cccc2Cl)c1`, for which the T/C under setting [4] is 127 % of control. Further, the survivor count under setting [5] is 2 of 6 and 3 of 6; the survivor count under setting [6] was 0 of 6.
Regarding `CNC(=O)OCc1c(COC(=O)NC)c(-c2ccc(S(C)(=O)=O)cc2)n(C)c1C`, the T/C is 136 % of control under setting [7]; 130 and 144 % of control under setting [8]; 139 % of control under setting [9]. The survivor count (dose: 200.0 mg/kg/injection, schedule: Q01DX009 (ip), vehicle: distilled water + Tween-80) is 2 of 6.
With `O=C1C[C@@H]2OCC=C3C[N+]4([O-])CC[C@]56c7ccccc7N1[C@H]5[C@H]2[C@H]3C[C@@H]64` (stereo partly drawn), the survivor count (dose: 50.0 mg/kg/injection, schedule: Q01DX005 (ip), vehicle: saline) is 0 of 6.
Turning to `O=C(O)CCCNC1=CC(=O)c2ccccc2C1=O`, the survivor count runs as follows: (dose: 200.0 mg/kg/injection, schedule: Q04DX003 (ip), vehicle: saline with Tween-80) 3 of 6; (dose: 400.0 mg/kg/injection, schedule: Q04DX003 (ip), vehicle: saline with Tween-80) 0 of 6.
Turning to `CCc1c(-c2ccccc2)nc(N)nc1-c1nc(N)nc(-c2ccccc2)c1CC`, under setting [10], the survivor count is given as 1 of 6.
Take `Nc1cnnc2nc[nH]c12`: under setting [3], the survivor count is 0 of 6.
In the case of `CCOC(=O)C1Cc2c([nH]c(=O)[nH]c2=O)OC1c1cccc(Cl)c1` (stereo not drawn), the survivor count reads like this: (dose: 50.0 mg/kg/injection, schedule: Q01DX009 (ip), vehicle: saline with Tween-80) 6 of 6; (dose: 100.0 mg/kg/injection, schedule: Q01DX009 (ip), vehicle: saline with Tween-80) 6 of 6; (dose: 200.0 mg/kg/injection, schedule: Q01DX009 (ip), vehicle: saline with Tween-80) 6 of 6.
Consider `COCCCOC(=O)NCCCCC([NH-])C(=O)O.COCCCOC(=O)NCCCCC([NH-])C(=O)O.[Cu+2]` (stereo not drawn), for which the survivor count is 0 of 6 under setting [11], 0 of 6 under setting [2] and 0 of 6 under setting [3].
As to `NC(Cc1csc2ccc(Cl)cc12)C(=O)O` (stereo not drawn), the survivor count (dose: 200.0 mg/kg/injection, schedule: Q01DX001 (ip), vehicle: Klucel (hydroxypropylcellulose) (HPC)) is listed as 2 of 6.
On to `CC(=O)OC(OC(C)=O)c1ccc([N+](=O)[O-])s1`, for which the survivor count is given as 4 of 6 (dose: 200.0 mg/kg/injection, schedule: Q01DX009 (ip), vehicle: Klucel (hydroxypropylcellulose) (HPC)) and 1 of 6 (dose: 400.0 mg/kg/injection, schedule: Q01DX009 (ip), vehicle: Klucel (hydroxypropylcellulose) (HPC)).
Take `Cc1c(NC(=O)CCl)c(=O)oc2c(C)c3occc(=O)c3cc12`: the survivor count (dose: 120.0 mg/kg/injection, schedule: Q01DX005 (ip), vehicle: saline with Tween-80) is 5 of 6.
In the case of `COc1ccc(Cc2cc(N=NC(N)=O)c(C)cc2O)cc1`, the survivor count by setting is: under setting [11], 6 of 6; under setting [2], 6 of 6; under setting [3], 6 of 6.
Take `CCCN(CCC)C(C)C(O)c1cccc2ccccc12` (stereo not drawn): the survivor count under setting [1] is 0 of 5.
For the molecule `COc1ccc2c(c1)CN(Cc1c(Cl)cccc1Cl)CO2`, the survivor count (dose: 25.0 mg/kg/injection, schedule: Q01DX005 (ip), vehicle: Klucel (hydroxypropylcellulose) (HPC)) is listed as 6 of 6.
Consider `Cc1c2oc3c(C)ccc(C(=O)NC4C(=O)NC(C(C)C)C(=O)N5CCCC5C(=O)N(C)CC(=O)N(C)C(C(C)C)C(=O)OC4C)c3nc-2c(C(=O)NC2C(=O)NC(C(C)C)C(=O)N3CCCC3C(=O)N(C)CC(=O)N(C)C(C(C)C)C(=O)OC2C)c(Cl)c1=O` (stereo not drawn), for which the T/C by setting is: (dose: 0.4 mg/kg/injection, schedule: Q01DX009 (ip), vehicle: water) 125 % of control; (dose: 0.8 mg/kg/injection, schedule: Q01DX009 (ip), vehicle: water) 125 % of control; (dose: 1.6 mg/kg/injection, schedule: Q01DX009 (ip), vehicle: water) 136 and 144 % of control; (dose: 3.13 mg/kg/injection, schedule: Q01DX009 (ip), vehicle: water) 126 % of control; (dose: 3.2 mg/kg/injection, schedule: Q01DX009 (ip), vehicle: water) 147 % of control; (dose: 6.25 mg/kg/injection, schedule: Q01DX009 (ip), vehicle: water) 131 % of control. The survivor count is 3 of 3 and 6 of 6 (dose: 50.0 mg/kg/injection, schedule: Q01DX009 (ip), vehicle: water); 0 of 3 (dose: 100.0 mg/kg/injection, schedule: Q01DX009 (ip), vehicle: water).
Turning to `COc1ccc(C2C3CCN2CC3)cc1` (stereo not drawn), the survivor count was 0 of 6 (dose: 25.0 mg/kg/injection, schedule: Q01DX009 (ip), vehicle: saline); 0 of 6 under setting [4]; 0 of 6 under setting [5]; 0 of 6 under setting [6].
Turning to `CC(=O)n1c(Cl)c(/C=N/NS(=O)(=O)c2ccc(C)cc2)c2ccccc21`, the survivor count was 6 of 6 (2×) (dose: 100.0 mg/kg/injection, schedule: Q01DX001 (ip), vehicle: saline with Tween-80); 6 of 6 (2×) (dose: 200.0 mg/kg/injection, schedule: Q01DX001 (ip), vehicle: saline with Tween-80); 6 of 6 (dose: 400.0 mg/kg/injection, schedule: Q01DX001 (ip), vehicle: saline with Tween-80).
For the molecule `ClCC[N+]12CC[N+](CCCl)(CC1)C2.[Cl][Pt]([Cl])([Cl])[Cl]`, the T/C was 131 % of control [5 of 6 alive] (dose: 6.25 mg/kg/injection, schedule: Q01DX009 (ip), vehicle: distilled water + Tween-80); 131 and 133 % of control under setting [7]. Moreover, the survivor count is 5 of 6 under setting [8]; 0 of 6 and 1 of 6 under setting [9]; 1 of 6 (dose: 100.0 mg/kg/injection, schedule: Q01DX009 (ip), vehicle: distilled water + Tween-80).
As to `O=c1c2ccccc2nc(-c2ccccc2)n1-c1cc(C(F)(F)F)cc(C(F)(F)F)c1`, the survivor count (dose: 25.0 mg/kg/injection, schedule: Q01DX009 (ip), vehicle: saline with Tween-80) is listed as 6 of 6.
Take `O=C(O)c1cocc1C(=O)O`: the survivor count under setting [10] is reported as 6 of 6.
